Test results: US20060035823A1
No constants are given. Whether binding was seen depends on the method and setting. Some entries that bind do so weakly or less than the wild type.

Amino acid sequences for entries named in this document (tags omitted). A change or cut given only in a name is not applied to a line headed by its entry. Residues count along the entry.
UniProt P37198, residues 270-522: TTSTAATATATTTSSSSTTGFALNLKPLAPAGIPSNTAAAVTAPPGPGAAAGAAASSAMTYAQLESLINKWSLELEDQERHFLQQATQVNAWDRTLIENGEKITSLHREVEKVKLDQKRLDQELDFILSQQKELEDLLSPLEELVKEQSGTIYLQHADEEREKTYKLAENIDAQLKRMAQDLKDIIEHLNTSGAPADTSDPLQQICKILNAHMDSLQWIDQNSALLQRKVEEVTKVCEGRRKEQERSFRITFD
UniProt P04386: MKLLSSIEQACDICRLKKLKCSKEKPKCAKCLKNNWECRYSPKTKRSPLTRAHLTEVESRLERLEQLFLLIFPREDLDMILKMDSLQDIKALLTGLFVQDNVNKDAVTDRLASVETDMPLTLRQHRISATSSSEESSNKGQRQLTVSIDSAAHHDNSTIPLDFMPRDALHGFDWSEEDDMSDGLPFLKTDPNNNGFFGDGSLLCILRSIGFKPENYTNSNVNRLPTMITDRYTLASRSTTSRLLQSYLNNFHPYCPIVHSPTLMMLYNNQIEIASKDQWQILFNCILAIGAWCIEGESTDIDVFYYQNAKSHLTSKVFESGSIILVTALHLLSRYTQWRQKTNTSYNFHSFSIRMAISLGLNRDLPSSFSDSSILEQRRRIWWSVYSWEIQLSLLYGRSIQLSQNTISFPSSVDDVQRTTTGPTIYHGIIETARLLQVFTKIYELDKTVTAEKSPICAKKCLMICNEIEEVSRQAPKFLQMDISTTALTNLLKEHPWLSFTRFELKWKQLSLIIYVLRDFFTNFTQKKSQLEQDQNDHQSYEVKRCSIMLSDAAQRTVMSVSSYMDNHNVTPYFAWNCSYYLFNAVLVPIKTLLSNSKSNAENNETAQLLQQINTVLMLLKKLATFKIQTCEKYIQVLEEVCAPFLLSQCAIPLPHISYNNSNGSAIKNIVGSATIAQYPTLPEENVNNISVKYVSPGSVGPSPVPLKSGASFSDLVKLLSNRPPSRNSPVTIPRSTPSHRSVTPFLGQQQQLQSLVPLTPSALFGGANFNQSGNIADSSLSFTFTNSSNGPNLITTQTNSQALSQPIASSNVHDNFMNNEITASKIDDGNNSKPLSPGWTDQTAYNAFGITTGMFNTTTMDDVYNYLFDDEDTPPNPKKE
UniProt Q13114: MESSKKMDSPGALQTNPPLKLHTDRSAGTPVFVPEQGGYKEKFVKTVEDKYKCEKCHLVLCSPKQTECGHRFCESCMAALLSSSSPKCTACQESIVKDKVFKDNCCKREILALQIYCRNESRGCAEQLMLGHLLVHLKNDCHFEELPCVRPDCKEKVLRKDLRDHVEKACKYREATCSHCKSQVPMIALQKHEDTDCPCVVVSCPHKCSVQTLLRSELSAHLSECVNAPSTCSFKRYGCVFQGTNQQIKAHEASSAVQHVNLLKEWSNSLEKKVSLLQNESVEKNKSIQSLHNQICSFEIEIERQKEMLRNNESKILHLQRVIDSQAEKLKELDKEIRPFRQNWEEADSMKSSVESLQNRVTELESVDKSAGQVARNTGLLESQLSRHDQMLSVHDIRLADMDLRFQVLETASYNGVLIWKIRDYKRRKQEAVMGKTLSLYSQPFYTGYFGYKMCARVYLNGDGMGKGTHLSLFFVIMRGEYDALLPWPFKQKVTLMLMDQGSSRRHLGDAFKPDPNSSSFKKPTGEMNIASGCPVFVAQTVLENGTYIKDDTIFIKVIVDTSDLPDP

Key:
[1] = target: GAL4 AD fusion of p62 nucleoporin aa 336-522 (pACT/p62(336-522)) (Homo sapiens (Human)) (UniProt P37198); assay: yeast two-hybrid
[2] = target: T1, GAL4 DNA-binding domain (BD)/full-length TRAF-3 fusion construct (pGBT9/TRAF-3) (human) (UniProt P04386+Q13114); assay: yeast two-hybrid library screen
[3] = target: T1, GAL4 DNA-binding domain (BD)/full-length TRAF-3 fusion construct (pGBT9/TRAF-3) (human); assay: yeast two-hybrid (β-gal, growth without His)
[4] = target: T1, GAL4 DNA-binding domain (BD)/full-length TRAF-3 fusion construct (pGBT9/TRAF-3) (human); assay: yeast two-hybrid

In the case of “GAL4 BD fusion of TRAF-3 aa 110-343 (Zn fingers and coiled-coil domain), in pGBT9 (from UniProt P04386 1-147; Q13114 110-343)”, the binding [1] is reported as “binds”.

With “GAL4 AD fusion of p62 nucleoporin aa 336-522 (pACT/p62(336-522)) (from UniProt P37198 336-522)” the binding [2] was “binds”.

For “GAL4 AD fusion of p62 nucleoporin aa 270-522 (pACT/p62(270-522)) (from UniProt P37198 270-522)”, the binding [3] was “binds” and the binding [4] was “binds”.
